{
  "source": "patent US7084261B2",
  "about": "(Hoffmann-La Roche Inc., priority 2002, dated 2006)",
  "assay": "peptide synthesis",
  "conditions": "whole synthesis",
  "note": "Strings that start with PEPTIDE1 are HELM notation: dots part the residues, brackets hold end groups and non-standard residues.",
  "data": [
    {"substance": "PEPTIDE1{W.Q.E.W.E.Q.K.I.T.A.L.L.E.Q.A.Q.I.Q.Q.E.K.N.E.Y.E.L.Q.K.L.D.K.W.A.S.L.W.E.W.F.[am]}$$$$V2.0", "values": [
      {"measurement": "purity (crude or final not stated)", "result": 93.7, "unit": "%"}
    ]}
  ]
}
